Laboratory results from patent US20210379068A1, “METHODS AND MATERIALS FOR TREATING NEUROPSYCHIATRIC DISORDERS” (Mayo Foundation for Medical Education and Research, priority 2018, published 2021).

What was measured:
Type in all cases: in vivo, mouse
[1] = Body mass and body composition, INK-ATTAC;db/db mice treated with AP20187; settings: AP20187 vs vehicle, 2 months
Procedure: INK-ATTAC mice were injected intraperitoneally (i.p.) with AP20187 (10 mg/kg) or vehicle for 3 days every 2 weeks for a total of 8-10 weeks.
(§1) Lean and fat mass of individual mice were determined by quantitative nuclear magnetic resonance using an EchoMRT analyser (Houston, Tex.) and expressed as a function of body weight. Un-anesthetized animals were placed in a plastic tube that was introduced into the EchoMRT instrument. Body composition, comprising fat mass and lean mass, was determined in approximately 90 seconds per animal.

[2] = Body weight and body fat, HFD mice treated with Reparixin; settings: HFD C57BL/6 mice; Reparixin 30 mg/kg s.c. twice per day for 2 weeks
Procedure: Reparixin L-lysine salt (MedChemExpress, #HY-15252) or L-Lysine hydrochloride (MedChemExpress, #HY-N0470) was dissolved in H2O was administered to obese C57BL/6 mice (fed for 2 months with high-fat diet) via subcutaneous injection (30 mg/kg) twice per day for 2 weeks. 2 hours after the last injection mice were tested in open field and elevated plus maze and afterwards dissected. Lean and fat mass of individual mice were determined by quantitative nuclear magnetic resonance using an EchoMRT analyser (Houston, Tex.) and expressed as a function of body weight. Un-anesthetized animals were placed in a plastic tube that was introduced into the EchoMRT instrument. Body composition, comprising fat mass and lean mass, was determined in approximately 90 seconds per animal.

[3] = Body weight and body composition after Cxcl1 injection; settings: lean C57BL/6, Cxcl1 5 μg/kg i.p. daily for 7 days
Procedure: Recombinant CXCL1 (Peprotech, #250-11) or vehicle (PBS) was administered to lean C57BL/6 via i.p. injection (5 μg/kg in PBS) daily for 7 days. 2 hours after the last injection mice were tested in open field and elevated plus maze and afterwards dissected.
as §1

**Q.** Which body composition [1] does the source give for `CC[C@H](C(=O)N1CCCC[C@H]1C(=O)O[C@H](CCc1ccc(OC)c(OC)c1)c1cccc(OCC(=O)NCC(CNC(=O)COc2cccc([C@@H](CCc3ccc(OC)c(OC)c3)OC(=O)[C@@H]3CCCCN3C(=O)[C@@H](CC)c3cc(OC)c(OC)c(OC)c3)c2)CN(C)C)c1)c1cc(OC)c(OC)c(OC)c1` [AP] here?
**A.** No changes; also recorded: did not alter

**Q.** What about the body mass [1] of the same molecule?
**A.** No changes; also recorded: did not alter

**Q.** Which results are given for `CC(C)Cc1ccc([C@@H](C)C(=O)NS(C)(=O)=O)cc1` [Reparixin]?
**A.** body fat [2]: no alterations; also recorded: no difference; body weight [2]: small increase

B1: Cxcl1: Recombinant CXCL1 (Peprotech, #250-11) injected i.p. into lean mice (protein, UniProt P12850 25-96, looked up)
Growth-regulated alpha protein: APIANELRCQCLQTMAGIHLKNIQSLKVLPSGPHCTQTEVIATLKNGREACLDPEAPLVQKIVQKMLKGVPK
**Q.** What does the source list for B1?
**A.** body composition (body fat) [3]: did not change; body weight [3]: decreased slightly; body composition (body fat) ([3]; listed as Cxcl-1): did not experience changes; body weight ([3]; listed as Cxcl-1): lost weight

Entries after “also recorded” stand apart in the source; their conditions may differ.
